Where a name gives a salt, the structure may show the parent alone. The list shows a part of the results. The calls rarely recur for the same compound in another form.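 Kinases were expressed as nanoluciferase fusions in K562 cells and luminescence was read every 4 h between 2 and 18 h as percent of control, DMSO set to 100% and a positive control to 0%. A time point counts as decreased when the signal drops significantly (2 sigma). The hit call is the authors' own, does not follow from the count of time points alone, and its rule is not shown.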
Molecular target: RIPK2 (UniProt O43353)
Experiment: number of time points (of 5) at which kinase-Nluc abundance scored as decreased, DMSO-normalised (count); higher = more persistent destabilization
Details: K562; 2-18 h

Row | SMILES | number of time points
1 | COc1ccc(Br)c(C=O)c1O [6-Bromo-2-hydroxy-3-methoxybenzaldehyde] (10 µM) | 0
2 | O=C1C=CC2=C3c4cc(O)c(O)cc4CC3(O)COC2=C1O (configuration not stated) [Hematein] (10 µM) | 0
3 | Cc1cccc(CC(=O)N2CCc3c2ccc(-c2cn(C)c4ncnc(N)c24)c3F)n1 (10 µM) | 0
4 | COCCOc1cnc2ccn([C@H](C)c3nnc4c(F)cc(-c5cnn(C)c5)cn34)c(=O)c2c1 (10 µM) | 0
5 | Cn1cc(C2=C(c3ccc(Cl)cc3Cl)C(=O)NC2=O)c2ccccc21 (10 µM) | 0
6 | COc1cc(N2CCC(N3CCN(C)CC3)CC2)ccc1Nc1ncnc(Nc2ccccc2S(=O)(=O)C(C)C)n1 (10 µM) | 0
7 | COc1c(Nc2ncc(Cl)c(N[C@H]3[C@@H](C(N)=O)[C@@H]4C=C[C@H]3C4)n2)ccc2c1CC[C@@H](N1CCOCC1)CC2 (10 µM) | 0
8 | Cc1ccc(NC(=O)N2CCN(c3nc(N)nc4sc(-c5cccnc5)nc34)CC2)cc1 [PI4KIII beta inhibitor 3] (10 µM) | 0
9 | CNc1cc2c(Nc3cccc(Br)c3)ncnc2cn1 (10 µM) | 0
10 | CC(C)n1c(CO)nc2c(F)cc(-c3nc(Nc4ccc(CN5CCNCC5)cn4)ncc3F)cc21 (10 µM) | 3
11 | CN1CCC(Nc2ccc(C(=O)Nc3cc(-c4ccc5c(c4)OCO5)[nH]n3)cc2)CC1 (10 µM) | 0
12 | CNC(=O)CN1CCC(Oc2cc3c(Nc4cccc(Cl)c4F)ncnc3cc2OC)CC1 [Sapitinib] (10 µM) | 0
13 | O=C(O)c1c[nH]c2cc(Cl)c(-c3ccc(C4(O)CCC4)cc3)cc12 (10 µM) | 0
14 | COc1cc(N2CCC(O)CC2)ccc1Nc1nc(Nc2ccccc2S(=O)(=O)C(C)C)c2[nH]cnc2n1 (10 µM) | 0
15 | O=c1c(O)c(-c2ccc(O)c(O)c2)oc2cc(O)c(O)c(O)c12 [Quercetagetin] (10 µM) | 0
16 | Cc1ncsc1-c1ccc(CNC(=O)[C@@H]2C[C@@H](O)CN2C(=O)[C@@H](NC(=O)COCCOc2ccc(-c3cc(Nc4ccc(OC(F)(F)F)cc4)ncn3)cc2)C(C)(C)C)cc1 (2.5 µM) | 2

Row | SMILES | number of time points
17 | COc1cc(Nc2ccnc3ccc(Br)cc23)cc(OC)c1OC (2.5 µM) | 0
18 | Cc1ccc2c(NS(=O)(=O)c3ccccc3Cl)cccc2c1Oc1ncccc1-c1ccnc(N[C@H]2CCCNC2)n1 (2.5 µM) | 0
19 | CC(C)c1cc2c(c(O)c1O)[C@@]13CCCC(C)(C)[C@@H]1C[C@@H]2OC3=O [Carnosol] (2.5 µM) | 0
20 | Cc1nc2c(NCc3cccc(S(C)(=O)=O)c3)nccn2c1-c1ccc(O)c(F)c1 (10 µM) | 0
21 | CC(C)n1cnc2c(Nc3cccc(Cl)c3)nc(N[C@H]3CCCC[C@@H]3N)nc21 (2.5 µM) | 0
22 | O=c1cc(N2CCOCC2)oc2c(-c3cccc4c3sc3ccccc34)cccc12 (10 µM) | 0
23 | C[C@@H]1COC(Nc2ccc3ncnc(Nc4ccc(OCc5nccs5)c(Cl)c4)c3c2)=N1 [Varlitinib] (10 µM) | 0
24 | Cc1cncc2cccc(S(=O)(=O)N3CCCNC[C@@H]3C)c12 [H-1152 (dihydrochloride)] (10 µM) | 0
25 | CCC[C@H](C)Oc1nc(N)c2[nH]c(=O)n(CCCCCN3CCCCC3)c2n1 (10 µM) | 0
26 | CC(C)(Oc1ccc(Cl)cc1)C(=O)Nc1ccc(OCc2ccc(C#N)cc2)cc1 [AMPK activator 4] (10 µM) | 0
27 | Cc1cc(N2CCOCC2)ccc1Nc1nc(NC2CCCCC2)c2[nH]cnc2n1 (10 µM) | 0
28 | CC(ONC(=O)c1cc(C(F)(F)F)cc(C(F)(F)F)c1)C(=O)Nc1ccc(Cl)cc1 (configuration not stated) (2.5 µM) | 0
29 | O=S(=O)(c1ccc(O)cc1O)N1Cc2cc(O)cc(O)c2C1 (10 µM) | 0
30 | CN1CCN(c2ccc(-n3cc(-c4ccncc4OCC4CCNCC4)cn3)cc2)CC1 [MELK-8a (hydrochloride)] (10 µM) | 3
31 | CCCCC(=O)OCC(=O)[C@]1(O)Cc2c(O)c3c(c(O)c2[C@@H](O[C@H]2C[C@H](NC(=O)C(F)(F)F)[C@H](O)[C@H](C)O2)C1)C(=O)c1c(OC)cccc1C3=O [Valrubicin] (10 µM) | 0
32 | CC(C)=CCC[C@](C)(O[C@@H]1O[C@H](CO[C@@H]2O[C@H](CO)[C@@H](O)[C@H](O)[C@H]2O)[C@@H](O)[C@H](O)[C@H]1O)[C@H]1CC[C@]2(C)[C@@H]1[C@H](O)C[C@@H]1[C@@]3(C)CC[C@H](O[C@@H]4O[C@H](CO)[C@@H](O)[C@H](O)[C@H]4O[C@@H]4O[C@H](CO)[C@@H](O)[C@H](O)[C@H]4O)C(C)(C)[C@@H]3CC[C@]12C [Ginsenoside Rb1] (10 µM) | 0

Two records picked at random from the list so far, as already listed:
Row | SMILES | number of time points
22 | O=c1cc(N2CCOCC2)oc2c(-c3cccc4c3sc3ccccc34)cccc12 (10 µM) | 0
32 | CC(C)=CCC[C@](C)(O[C@@H]1O[C@H](CO[C@@H]2O[C@H](CO)[C@@H](O)[C@H](O)[C@H]2O)[C@@H](O)[C@H](O)[C@H]1O)[C@H]1CC[C@]2(C)[C@@H]1[C@H](O)C[C@@H]1[C@@]3(C)CC[C@H](O[C@@H]4O[C@H](CO)[C@@H](O)[C@H](O)[C@H]4O[C@@H]4O[C@H](CO)[C@@H](O)[C@H](O)[C@H]4O)C(C)(C)[C@@H]3CC[C@]12C [Ginsenoside Rb1] (10 µM) | 0

Reference: the supplement of paper PMC12823440, “Inhibitors supercharge kinase turnover through native proteolytic circuits” (Nature, 2025)
